Reference: patent EP4624487A1, “PRODUCTION OF ANTIBODIES AGAINST PROTEIN” (priority 2022, dated 2024)
Part of at least one peptide drawing is inferred or uncertain, most often the ends. No end group written: not given here.

Test system: each antigen peptide
Assay: Antibody titers (ELISA, OD450) of antisera from rabbits immunized with hTNFα peptide mixtures, against each solid-phased antigen peptide
Format: in vivo, human
Settings: rabbit, Mixed Peptides (12) Dose Group B

SDKPVAHVVANPQAE [T(9-23)]
OD450 (antiserum B1, diluted at 100-fold): 0.232 | OD450 (antiserum B2, diluted at 100-fold): 0.444
